These are yes or no findings as the source states them, for the method shown. In cells and extracts the contact can be indirect. Some results given as binding are weak or reduced against the parent protein; the word gives no strength. Tags and fused reporters may be left off the sequences shown.

The values below come from article PMC8490708.

One experiment addresses T1, SALL1ΔSIM-YFP (human) (UniProt Q9NSC2).
T1 sequence: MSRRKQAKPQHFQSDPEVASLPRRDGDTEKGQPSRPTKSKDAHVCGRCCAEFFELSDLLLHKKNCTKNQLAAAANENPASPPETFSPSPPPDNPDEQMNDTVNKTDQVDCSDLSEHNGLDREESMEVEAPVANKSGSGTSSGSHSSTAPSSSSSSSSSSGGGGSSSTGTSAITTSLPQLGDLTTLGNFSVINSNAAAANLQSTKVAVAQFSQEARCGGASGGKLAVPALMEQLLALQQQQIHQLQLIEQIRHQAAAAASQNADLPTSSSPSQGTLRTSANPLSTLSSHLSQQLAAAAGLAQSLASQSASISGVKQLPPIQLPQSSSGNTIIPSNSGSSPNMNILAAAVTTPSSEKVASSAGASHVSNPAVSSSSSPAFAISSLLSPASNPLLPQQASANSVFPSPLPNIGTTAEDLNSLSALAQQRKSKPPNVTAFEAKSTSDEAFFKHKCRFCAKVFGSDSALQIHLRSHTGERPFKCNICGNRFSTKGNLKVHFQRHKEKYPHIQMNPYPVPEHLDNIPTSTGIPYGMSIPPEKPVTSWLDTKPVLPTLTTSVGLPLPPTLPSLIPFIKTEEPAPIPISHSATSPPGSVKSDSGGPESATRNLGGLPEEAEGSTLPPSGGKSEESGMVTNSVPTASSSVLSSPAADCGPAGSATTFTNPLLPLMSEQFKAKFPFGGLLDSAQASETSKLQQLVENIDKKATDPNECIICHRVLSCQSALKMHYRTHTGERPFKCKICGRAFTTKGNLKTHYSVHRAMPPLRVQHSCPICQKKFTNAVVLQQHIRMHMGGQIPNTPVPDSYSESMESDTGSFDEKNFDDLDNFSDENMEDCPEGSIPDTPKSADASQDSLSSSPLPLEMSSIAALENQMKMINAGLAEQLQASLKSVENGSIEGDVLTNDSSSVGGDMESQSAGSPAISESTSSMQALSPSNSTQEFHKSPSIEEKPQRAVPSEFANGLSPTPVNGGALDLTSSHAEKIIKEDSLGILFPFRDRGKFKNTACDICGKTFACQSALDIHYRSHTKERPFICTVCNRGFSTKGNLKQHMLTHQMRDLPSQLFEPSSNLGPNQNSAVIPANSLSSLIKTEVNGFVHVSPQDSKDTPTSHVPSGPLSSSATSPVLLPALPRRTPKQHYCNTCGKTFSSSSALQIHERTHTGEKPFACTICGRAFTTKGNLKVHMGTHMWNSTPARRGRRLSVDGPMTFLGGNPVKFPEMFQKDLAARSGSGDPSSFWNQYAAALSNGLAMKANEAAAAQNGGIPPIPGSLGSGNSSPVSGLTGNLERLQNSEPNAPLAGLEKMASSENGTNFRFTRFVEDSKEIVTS
The experiment in a line: pull-down; GFP-Trap co-pulldown: YFP-tagged bait and HA-tagged prey co-transfected in HEK 293FT cells; lysate (150 mM NaCl, 1% NP-40, 0.5% Triton X-100) with GFP-Trap resin overnight at 4°C; washes with 300 mM NaCl; Western blot.

For another experiment, the target named is T2, SALL1ΔSUMO-YFP (human) (UniProt Q9NSC2).
T2 sequence: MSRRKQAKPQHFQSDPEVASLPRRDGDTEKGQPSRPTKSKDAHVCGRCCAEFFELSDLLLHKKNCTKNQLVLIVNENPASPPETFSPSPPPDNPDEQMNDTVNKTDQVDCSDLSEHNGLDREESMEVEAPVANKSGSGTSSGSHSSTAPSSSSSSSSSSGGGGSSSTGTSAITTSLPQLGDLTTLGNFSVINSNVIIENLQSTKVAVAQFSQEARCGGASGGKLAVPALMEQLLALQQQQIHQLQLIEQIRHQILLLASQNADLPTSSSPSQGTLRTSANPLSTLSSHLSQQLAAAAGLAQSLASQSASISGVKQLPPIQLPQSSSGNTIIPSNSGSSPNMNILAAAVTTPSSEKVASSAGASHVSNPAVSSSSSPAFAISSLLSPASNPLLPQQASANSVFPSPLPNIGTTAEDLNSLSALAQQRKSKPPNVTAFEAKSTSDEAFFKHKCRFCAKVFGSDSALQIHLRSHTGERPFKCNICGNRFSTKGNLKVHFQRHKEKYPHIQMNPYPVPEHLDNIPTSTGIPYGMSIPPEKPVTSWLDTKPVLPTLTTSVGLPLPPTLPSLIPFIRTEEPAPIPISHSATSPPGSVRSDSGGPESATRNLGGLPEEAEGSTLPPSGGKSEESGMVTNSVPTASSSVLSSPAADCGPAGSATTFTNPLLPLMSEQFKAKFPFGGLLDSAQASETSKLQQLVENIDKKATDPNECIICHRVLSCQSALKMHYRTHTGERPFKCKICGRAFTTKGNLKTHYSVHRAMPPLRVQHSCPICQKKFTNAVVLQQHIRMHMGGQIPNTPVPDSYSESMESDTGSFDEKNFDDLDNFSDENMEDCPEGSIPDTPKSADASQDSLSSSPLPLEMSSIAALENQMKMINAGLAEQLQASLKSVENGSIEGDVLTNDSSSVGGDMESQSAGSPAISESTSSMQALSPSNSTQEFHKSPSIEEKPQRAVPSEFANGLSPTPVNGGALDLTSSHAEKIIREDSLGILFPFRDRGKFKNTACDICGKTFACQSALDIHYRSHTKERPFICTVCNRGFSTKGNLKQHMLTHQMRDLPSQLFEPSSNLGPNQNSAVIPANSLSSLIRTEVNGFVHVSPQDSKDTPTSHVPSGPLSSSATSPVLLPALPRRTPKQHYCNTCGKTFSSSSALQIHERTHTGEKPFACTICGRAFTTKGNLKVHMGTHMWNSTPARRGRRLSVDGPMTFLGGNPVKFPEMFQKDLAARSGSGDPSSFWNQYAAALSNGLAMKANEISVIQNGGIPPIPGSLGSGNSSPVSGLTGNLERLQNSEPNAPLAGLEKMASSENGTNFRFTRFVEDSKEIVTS
Described as above.

B1: CBX4-HA (protein, UniProt O00257 1-560)
chain: MELPAVGEHVFAVESIEKKRIRKGRVEYLVKWRGWSPKYNTWEPEENILDPRLLIAFQNRERQEQLMGYRKRGPKPKPLVVQVPTFARRSNVLTGLQDSSTDNRAKLDLGAQGKGQGHQYELNSKKHHQYQPHSKERAGKPPPPGKSGKYYYQLNSKKHHPYQPDPKMYDLQYQGGHKEAPSPTCPDLGAKSHPPDKWAQGAGAKGYLGAVKPLAGAAGAPGKGSEKGPPNGMMPAPKEAVTGNGIGGKMKIVKNKNKNGRIVIVMSKYMENGMQAVKIKSGEVAEGEARSPSHKKRAADERHPPADRTFKKAAGAEEKKVEAPPKRREEEVSGVSDPQPQDAGSRKLSPTKEAFGEQPLQLTTKPDLLAWDPARNTHPPSHHPHPHPHHHHHHHHHHHHAVGLNLSHVRKRCLSETHGEREPCKKRLTARSISTPTCLGGSPAAERPADLPPAAALPQPEVILLDSDLDEPIDLRCVKTRSEAGEPPSSLQVKPETPASAAVAVAAAAAPTTTAEKPPAEAQDEPAESLSEFKPFFGNIIITDVTANCLTVTFKEYVTV
Consider B1, for which the binding entry with SALL1ΔSIM-YFP (human) and with SALL1ΔSUMO-YFP (human) was “binds” in each case.
